Reference: US11584916B2, “Method of making in vivo human small intestine organoids from pluripotent stem cells” (Children's Hospital Medical Center, priority 2014, dated 2023)
For at least one compound, name, drawing or mass did not settle the structure.

What was measured:
HIO+NCC tissues = assay: Ex-vivo intestinal motility, organ bath, muscle strips of engrafted HIO+NCC; type: cell-based, human; conditions: DMPP 10 μM; veratridine 3 μM; HIO+NCC tissue strips
HIOs alone = assay: Ex-vivo intestinal motility, organ bath, muscle strips of engrafted HIO without NCC; type: cell-based, human; conditions: DMPP 10 μM; veratridine 3 μM; HIO tissue strips without NCC

Compound | muscle response to pharmacological activation of the ENS (HIO+NCC tissues) | muscle response to pharmacological activation of the ENS (HIOs alone)
C[N+]1(C)CCN(c2ccccc2)CC1 [DMPP, Dimethylphenylpiperazinium] | induced a relaxation of the muscle | not in HIOs alone
COc1ccc(C(=O)O[C@H]2CC[C@@]3(C)[C@@H]4CC[C@H]5[C@]6(O)C[C@H](O)[C@@]7(O)[C@@H](CN8C[C@@H](C)CC[C@H]8[C@@]7(C)O)[C@]6(O)C[C@@]53O[C@]24O)cc1OC [veratridine] | induced a relaxation of the muscle | not in HIOs alone
